Results deposited as PubChem BioAssay AID1259405 (NCATS, 2018)
In all, the deposit lists about 50,000 reagents; shown is a part drawn at random. About 4,000 of them (8%) count as active. 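Mouse siRNA library applied to hamster cells; one well for each siRNA.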 Reagents against one gene are numbered here. Further read-outs or replicates are left out here.

Aim: 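Knock-downs that lift recombinant protein yield in hamster ovary cells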 (primary screen)
Cell system: Chinese hamster CHO-K1 ovary cells with stable secreted eGFP expression
Reagents: single siRNA against mouse genes, 0.8 pmol siRNA per well (2 µl of 400 nM stock)
Timing: 3 days
Measured: 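Per-well intracellular GFP measured by laser scanning cytometry, plus viability from ATP luminescence, each relative to plate median of non-targeting control wells, in %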
Scale: GFP, % of control: higher = more GFP per well, higher productivity
Active means: 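Called active when intracellular GFP, relative to negative control, is at or above 120%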

GFP, % of control, by target gene and reagent
Srp68: #1 24.5 inactive; #2 81.3 inactive; #3 121 active
Bola3: #1 48.2 inactive; #2 80.7 inactive; #3 74.9 inactive
Perp: #1 93.1 inactive; #2 110 inactive; #3 29.7 inactive
Ebag9: #1 109 inactive; #2 81.8 inactive; #3 54.4 inactive
Psg16: #1 59.7 inactive; #2 55.5 inactive; #3 51.6 inactive
Upb1: #1 74.7 inactive; #2 136 active; #3 72.8 inactive
Cebpz: #1 59.9 inactive; #2 51.6 inactive
Stam: #1 70.9 inactive; #2 80.3 inactive; #3 94.5 inactive
Spns1: #1 111 inactive; #2 64.2 inactive; #3 116 inactive
Sned1: #1 67.1 inactive; #2 67.1 inactive; #3 71.2 inactive
Ddx49: #1 87.9 inactive; #2 94.1 inactive; #3 71.2 inactive
Nscme3l: #1 74 inactive; #2 85.1 inactive; #3 99.4 inactive
Shd: #1 115 inactive; #2 44.7 inactive; #3 60.3 inactive

Look-ups from above.
For “outcome”, Ebag9 #1 has inactive
Value of Perp #1 in “outcome”: inactive
Stam #2, outcome → inactive
Under “outcome”, Srp68 #1 is entered as inactive
For “outcome”, Ddx49 #3 shows inactive
Under “GFP, % of control”, Srp68 #2 has 81.3

Continued.
GFP, % of control, by target gene and reagent
Ranbp3l: #1 106 inactive; #2 69.9 inactive; #3 77.3 inactive
Rpl14: #1 114 inactive; #2 73.9 inactive; #3 93.5 inactive
Pdxdc1: #1 47.1 inactive; #2 118 inactive; #3 71.7 inactive
Irgm1: #1 40.5 inactive; #2 72 inactive; #3 95.5 inactive
Armc7: #1 62.1 inactive; #2 86.7 inactive; #3 126 active
Fbxl18: #1 73.2 inactive; #2 72.8 inactive; #3 130 active
Enpp3: #1 57.1 inactive; #2 84.1 inactive
Aldh6a1: #1 108 inactive; #2 71.5 inactive; #3 104 inactive
Gpt2: #1 61.2 inactive; #2 89 inactive; #3 70.5 inactive
Spc25: #1 72.9 inactive; #2 61 inactive; #3 52.3 inactive
Nphp3: #1 93.2 inactive; #2 52.4 inactive
Lgi3: #1 115 inactive; #2 47.8 inactive; #3 65.7 inactive
Tnnc1: #1 68.1 inactive; #2 90.3 inactive
Rmp64: #1 48.4 inactive; #2 88.7 inactive; #3 105 inactive
Tm4sf1: #1 37.1 inactive; #2 56.1 inactive; #3 60.5 inactive
Tpp1: #1 75.4 inactive; #2 120 inactive; #3 43.2 inactive
Rab5a: #1 99.6 inactive; #2 95.9 inactive; #3 130 active
